In publication PMC5711802, “Conservation of folding and association within a family of spidroin N-terminal domains” (Scientific Reports, 2017):
Results are given in words; binding and its absence hold for the method and conditions named. Some results given as binding are weak or reduced against the parent protein; the word gives no strength.

T1: N-terminal domain (NTD) of major ampullate spidroin 1 (MaSp1) from Euprosthenops australis (Euprosthenops australis), Q05H60
T1 chain: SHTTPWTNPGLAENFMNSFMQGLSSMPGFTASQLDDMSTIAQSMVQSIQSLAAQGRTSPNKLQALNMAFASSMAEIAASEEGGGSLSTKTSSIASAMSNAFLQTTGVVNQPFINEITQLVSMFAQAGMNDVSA


Key:
[1] = molecular target: T1, N-terminal domain (NTD) of major …; test: steady-state tryptophan fluorescence against pH; 10 uM protein; 50 mM MOPS pH 6.4 to 8.2 and 50 mM MES pH 5.2 to 7.2, ionic strength 20 mM (KCl); 298 K; emission at 330 nm and wavelength of maximal emission; both purified; settings: remark: other sources report otherwise
[2] = molecular target: N-terminal domain (NTD) of major ampullate spidroin 1 (MaSp1) from Euprosthenops australis (Euprosthenops australis) (UniProt Q05H60); test: condition: only 50 mM phosphate pH 7.0, ionic strength 200 mM (monomer conditions); SEC-MALS; monomer conditions: 50 mM phosphate pH 7.0, ionic strength 200 mM (KCl); 100 uL at 5 mg/mL on Superdex-75 HR10/300, 0.5 ml/min; both purified

binding [1]	binding [2]	Binder
binds	–	N-terminal domain (NTD) of major ampullate spidroin 1 (MaSp1) from Euprosthenops australis, Q05H60 24-156 (domain or fragment) SHTTPWTNPGLAENFMNSFMQGLSSMPGFTASQLDDMSTIAQSMVQSIQSLAAQGRTSPNKLQALNMAFASSMAEIAASEEGGGSLSTKTSSIASAMSNAFLQTTGVVNQPFINEITQLVSMFAQAGMNDVSA
–	no binding	N-terminal domain (NTD) of major ampullate spidroin 1 (MaSp1) from Euprosthenops australis (domain or fragment, UniProt Q05H60 24-156) SHTTPWTNPGLAENFMNSFMQGLSSMPGFTASQLDDMSTIAQSMVQSIQSLAAQGRTSPNKLQALNMAFASSMAEIAASEEGGGSLSTKTSSIASAMSNAFLQTTGVVNQPFINEITQLVSMFAQAGMNDVSA
